According to patent publication CN102875676A:
No constants are given. Whether binding was seen depends on the method and setting. Some results given as binding are weak or reduced against the parent protein; the word gives no strength. Values belong to the binder of their own block, whether it stands above or below them.

Chains of the proteins cited; added tags and fusions are not shown. Lines headed by an entry give the natural chain unless they say otherwise; changes in a name come on top. A line that says so, or that is headed by a name, gives the form on record, which may keep a tag or linker.
重组人VEGF (recombinant human VEGF, VEGF-A) (P15692, form named): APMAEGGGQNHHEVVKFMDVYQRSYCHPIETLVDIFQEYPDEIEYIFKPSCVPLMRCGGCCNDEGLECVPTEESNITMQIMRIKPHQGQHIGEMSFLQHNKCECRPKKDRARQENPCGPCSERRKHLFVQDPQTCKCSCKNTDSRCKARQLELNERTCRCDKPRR

How the values were obtained:
[1] = target: 重组人VEGF (recombinant human VEGF, VEGF-A) (human) (UniProt P15692); assay: ELISA of clones of the secondary Fab library on human VEGF
[2] = target: 重组人VEGF (recombinant human VEGF, VEGF-A) (human) (UniProt P15692); assay: Friguet method (solution equilibrium with human VEGF, ELISA of free antibody on immobilised VEGF)
[3] = target: 重组人VEGF (recombinant human VEGF, VEGF-A) (human) (UniProt P15692); assay: dissociation of 125I-labelled antibody from HUVEC cells over 2 h at 37 C (legend: dissociation from VEGF)
[4] = target: 重组人VEGF (recombinant human VEGF, VEGF-A) (human) (UniProt P15692); assay: ELISA of clone supernatants on coated recombinant human VEGF, anti-M13-HRP

- binding [1]: binds
- binding [2]: binds
B1: 6B2 Fab (候选分子6B2) (Fab, V domains shown)
VH: EVQLVQSGGGVVQPRRSLRLSCAASGFDIYDDDIHWVRQAPGKGLEWVYIAPSYGYTRYADSVKGRFTVSRDNSKNTLYLQMNSLRAEDTSVYYCARSSDASYSYSAMDYWGQGTLVTVSS
VL: DIQMTQSPSSVSASIGDRVTITCRASQDASYSSAWYQQRPGKAPELLIYSAASYESGVPSRFSGSGSGTDFTLTISSLQAEDFATYYCQSSASPATFGQGTRLEIKR

- binding [3]: binds
B2: 全长6B2 (F6B2), full-length antibody (antibody, V domains shown)
VH: EVQLVQSGGGVVQPRRSLRLSCAASGFDIYDDDIHWVRQAPGKGLEWVYIAPSYGYTRYADSVKGRFTVSRDNSKNTLYLQMNSLRAEDTSVYYCARSSDASYSYSAMDYWGQGTLVTVSS
VL: DIQMTQSPSSVSASIGDRVTITCRASQDASYSSAWYQQRPGKAPELLIYSAASYESGVPSRFSGSGSGTDFTLTISSLQAEDFATYYCQSSASPATFGQGTRLEIKR

- binding [4]: binds
B3: 3D7 Fab (原型分子3D7) (Fab, V domains shown)
VH: EVQLVESGGGLVQPGGSLRLSCAASGFNIKDTYIHWVRQAPGKGLEWVAYIAPSYGYTRYADSVKGRFTISADTSKNTAYLQMNSLRAEDTAVYYCSRSSDASYSYSAWGQGTLVTVSS
VL: DIVMTQSPSSLSASVGDRVTITCRASQFVGFYIHWYQQKPGKAPKLLIYAASERATGVPSRFSGSRSGTDFTLTISSLQPEDFATYYCQQWLNNPFTFGQGTKVEIKR
